What all share (assay): two-hybrid
Test [1] concerns the target T1, YhcB (E. coli), bacterial two-hybrid fusion (E. coli) (UniProt P0ADW3).
T1 sequence: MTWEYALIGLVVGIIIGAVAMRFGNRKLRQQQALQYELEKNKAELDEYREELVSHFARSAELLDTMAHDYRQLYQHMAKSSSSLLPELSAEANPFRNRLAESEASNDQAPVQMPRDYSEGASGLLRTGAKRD

The target in test [2] is YhcB-v7 (E. coli YhcB lacking the transmembrane region, N-terminal 21 amino acids deleted) (E. coli) (UniProt P0ADW3).
The target of test [3] is T1, YhcB (E. coli), bacterial two-hybrid fusion (E. coli). The source holds these as a separate data set.
Test [4] deals with YhcB-v7 (E. coli YhcB lacking the transmembrane region, N-terminal 21 amino acids deleted) (E. coli) (UniProt P0ADW3). The source holds these as a separate data set.

Read-outs that look alike come from different tables or passages of the source. Results are given in words; binding and its absence hold for the method and conditions named. Some entries that bind do so weakly or less than the wild type. For some of these results: Sequences can lack the tags named with a protein.

For the molecule “RodZ (E. coli) (from UniProt P27434 1-337)”, the binding entry is listed as “binds” in test [1] and “no binding” in test [2].

Take “ZapE (Vibrio cholerae) (from UniProt Q9KUF3 1-367)”: in test [1], the binding result is recorded as “binds”.

Regarding “FtsQ (E. coli) (from UniProt P06136 1-276)”, the binding entry in test [1] is given as “binds”.

B1: HemX (E. coli) (protein, UniProt P09127 1-393)
chain: MTEQEKTSAVVEETREAVDTTSQPVATEKKSKNNTALILSAVAIAIALAAGIGLYGWGKQQAVNQTATSDALANQLTALQKAQESQKAELEGIIKQQAAQLKQANRQQETLAKQLDEVQQKVATISGSDAKTWLLAQADFLVKLAGRKLWSDQDVTTAAALLKSADASLADMNDPSLITVRRAITDDIASLSAVSQVDYDGIILKLNQLSNQVDNLRLADNDSDGSPMDSDGEELSSSISEWRINLQKSWQNFMDNFITIRRRDDTAVPLLAPNQDIYLRENIRSRLLVAAQAVPRHQEETYRQALENVSTWVRAYYDTDDATTKAFLDEVDQLSQQNISMDLPETLQSQAMLEKLMQTRVRNLLAQPAAGTTEAKPAPAPQADTPAAAPQGE
For B1, the binding entry in test [3] was “binds”.

B2: YidC (E. coli) (protein, UniProt P25714 1-548)
chain: MDSQRNLLVIALLFVSFMIWQAWEQDKNPQPQAQQTTQTTTTAAGSAADQGVPASGQGKLISVKTDVLDLTINTRGGDVEQALLPAYPKELNSTQPFQLLETSPQFIYQAQSGLTGRDGPDNPANGPRPLYNVEKDAYVLAEGQNELQVPMTYTDAAGNTFTKTFVLKRGDYAVNVNYNVQNAGEKPLEISSFGQLKQSITLPPHLDTGSSNFALHTFRGAAYSTPDEKYEKYKFDTIADNENLNISSKGGWVAMLQQYFATAWIPHNDGTNNFYTANLGNGIAAIGYKSQPVLVQPGQTGAMNSTLWVGPEIQDKMAAVAPHLDLTVDYGWLWFISQPLFKLLKWIHSFVGNWGFSIIIITFIVRGIMYPLTKAQYTSMAKMRMLQPKIQAMRERLGDDKQRISQEMMALYKAEKVNPLGGCFPLLIQMPIFLALYYMLMGSVELRQAPFALWIHDLSAQDPYYILPILMGVTMFFIQKMSPTTVTDPMQQKIMTFMPVIFTVFFLWFPSGLVLYYIVSNLVTIIQQQLIYRGLEKRGLHSREKKKS
On to B2, for which the binding entry in test [3] is reported as “binds”; in test [4], “no binding”.

B3: YhcB (E. coli), bacterial two-hybrid fusion (protein, UniProt P0ADW3 1-132)
chain: MTWEYALIGLVVGIIIGAVAMRFGNRKLRQQQALQYELEKNKAELDEYREELVSHFARSAELLDTMAHDYRQLYQHMAKSSSSLLPELSAEANPFRNRLAESEASNDQAPVQMPRDYSEGASGLLRTGAKRD
B3: the binding result in test [3] is “no binding”.

B4: RodA (E. coli) (protein, UniProt P0ABG7 1-370)
chain: MTDNPNKKTFWDKVHLDPTMLLILLALLVYSALVIWSASGQDIGMMERKIGQIAMGLVIMVVMAQIPPRVYEGWAPYLYIICIILLVAVDAFGAISKGAQRWLDLGIVRFQPSEIAKIAVPLMVARFINRDVCPPSLKNTGIALVLIFMPTLLVAAQPDLGTSILVALSGLFVLFLSGLSWRLIGVAVVLVAAFIPILWFFLMHDYQRQRVMMLLDPESDPLGAGYHIIQSKIAIGSGGLRGKGWLHGTQSQLEFLPERHTDFIFAVLAEELGLVGILILLALYILLIMRGLWIAARAQTTFGRVMAGGLMLILFVYVFVNIGMVSGILPVVGVPLPLVSYGGSALIVLMAGFGIVMSIHTHRKMLSKSV
As for B4, the binding result in test [3] is “binds”.

B5: YciS (E. coli) (protein, UniProt P0ACV4 1-102)
chain: MKYLLIFLLVLAIFVISVTLGAQNDQQVTFNYLLAQGEYRISTLLAVLFAAGFAIGWLICGLFWLRVRVSLARAERKIKRLENQLSPATDVAVVPHSSAAKE
For B5, the binding result is listed as “binds” in test [3] and “no binding” in test [4].

B6: FtsI (E. coli) (protein, UniProt P0AD68 1-588)
chain: MKAAAKTQKPKRQEEHANFISWRFALLCGCILLALAFLLGRVAWLQVISPDMLVKEGDMRSLRVQQVSTSRGMITDRSGRPLAVSVPVKAIWADPKEVHDAGGISVGDRWKALANALNIPLDQLSARINANPKGRFIYLARQVNPDMADYIKKLKLPGIHLREESRRYYPSGEVTAHLIGFTNVDSQGIEGVEKSFDKWLTGQPGERIVRKDRYGRVIEDISSTDSQAAHNLALSIDERLQALVYRELNNAVAFNKAESGSAVLVDVNTGEVLAMANSPSYNPNNLSGTPKEAMRNRTITDVFEPGSTVKPMVVMTALQRGVVRENSVLNTIPYRINGHEIKDVARYSELTLTGVLQKSSNVGVSKLALAMPSSALVDTYSRFGLGKATNLGLVGERSGLYPQKQRWSDIERATFSFGYGLMVTPLQLARVYATIGSYGIYRPLSITKVDPPVPGERVFPESIVRTVVHMMESVALPGGGGVKAAIKGYRIAIKTGTAKKVGPDGRYINKYIAYTAGVAPASQPRFALVVVINDPQAGKYYGGAVSAPVFGAIMGGVLRTMNIEPDALTTGDKNEFVINQGEGTGGRS
With B6, the figures for the binding entry in test [3] and in test [4] were “binds” and “no binding”, respectively.

Source of the values: doi:10.1101/2020.12.31.425005 (bioRxiv, 2020).
